# Screen size: about 360,000 compounds; about 7,500 (2.1%) were called active. Inconclusive means that the source gave no clear call. Such entries were picked first, then a sample of the others. The call rests on the fitted dose curve; in most records, active means well fitted inhibition curve with a large enough effect; inconclusive means small, poorly fitted or top-dose-only effect, or effect the other way; inactive means flat fitted curve, though single readings scatter. Where the call is inconclusive, the potency comes from a doubtful curve fit.
# Test: Nrf2 qHTS screen for inhibitors; further: nearly all actives have a fitted effect of over 60% in size
# Settings: A549 ARE-Fluc reporter, luciferase luminescence, 18-24 h; activity change, negative = inhibition: at 46 µM (top of the series)
# Procedure, shortened: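 Nrf2 activity is the BugLite luminescence, read 15 min after reagent at room temperature, following CellTiter-Fluor cytotoxicity readout (30 min, 37C). Compound titrations were applied for 18-24 h to 5000 A549 ARE_Fluc cells/well in 5% FBS OPTI-MEM.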
# On the % scale 0 is the no-effect control and ±100 the full control effect; potency means the concentration at half of the fitted maximal effect.
Compound,Potency,"activity change, negative = inhibition"
O=[N+]([O-])c1ccc(C=NN2CCCCCC2)cc1,"inconclusive: 1.64 µM [activator, full curve]",
Fc1ccccc1CCNc1c2c(nc3ncnn13)CCCC2,"inconclusive: 16.4 µM [falling, partial curve, poor fit]",
O=C(NCCSc1ccccc1)c1cncc(Br)c1,"inconclusive: 5.17 µM [activator, partial curve, poor fit]",
CCn1c(SCC(=O)Nc2nc(-c3ccccc3)cs2)nnc1-c1ccccc1,"inconclusive: 7.31 µM [falling, partial curve, poor fit]",
Cc1nc(NC(=O)c2ccco2)sc1-c1csc(Nc2ccc(Cl)cc2)n1,"inconclusive: 20.6 µM [falling, single point]",
CCCCC1C(=O)N(c2ccccc2)N(c2ccc(O)cc2)C1=O (stereo not drawn),active: 25.9 µM,
O=C(Nc1cccc(NC(=O)c2ccc(Br)o2)n1)c1ccc(Br)o1,"inconclusive: 7.31 µM [activator, partial curve]",
Cc1ccc(S(=O)(=O)Nc2ccccc2-c2ccccc2)cc1,"inconclusive: 6.51 µM [falling, partial curve, poor fit]",
Cc1cc(-c2ccc(C)c(S(=O)(=O)N(C(C)C)C3CCCCC3)c2)on1,"inconclusive: 29.1 µM [falling, single point]",
O=C(COC(=O)c1ccc2[nH]c3c(c2c1)CCCC3)Nc1ccccc1,"inconclusive: 20.6 µM [falling, single point]",
COc1ccc(-n2c(-c3cccc(OC)c3)nc(=S)c3c2CCCC3)cc1,active: 25.9 µM,
O=S1(=O)N=C(Nc2nc3c(s2)CCCC3)c2ccccc21,"inconclusive: 2.31 µM [activator, partial curve]",
O=C(CN1CCN(Cc2ccccc2Cl)CC1)N/N=C/C=C/c1ccccc1[N+](=O)[O-],"inconclusive: 29.1 µM [falling, single point]",
CC1(C)O[C@H]2[C@@H](O1)[C@@H](C(=O)Nc1cc(F)ccc1F)O[C@@H]1OC(C)(C)O[C@@H]12,"inconclusive: 13 µM [activator, single point]",
O=C(O)CCSc1nnc(-c2ccc(Cl)cc2Cl)o1,active: 0.058 µM,
O=C(c1cc2ccccc2o1)N1CCN(CCOc2ccccc2)CC1,,inactive: -23%
Cc1nc2ccc(C(=O)Nc3ccccc3Cl)cc2s1,"inconclusive: 6.51 µM [activator, full curve, poor fit]",
O=C(Nc1ccc(Cl)c(S(=O)(=O)N2CCOCC2)c1)c1ccc2c(c1)OCO2,"inconclusive: 25.9 µM [falling, single point]",
c1ccc(CNc2ncnc3c2ncn3Cc2ccccc2)cc1,,inactive: -17.7%
Cc1ccc(-c2cn3c(n2)sc2cc(C(=O)NC4CCCCC4)ccc23)cc1,,inactive: 6.9%
COc1ccc(C)cc1NC(=O)CN(C)S(=O)(=O)c1cc(C)ccc1OC,"inconclusive: 11.6 µM [falling, partial curve, poor fit]",
CC(C)Cc1ccc(C(C)C(=O)Nc2ccccc2O)cc1 (stereo not drawn),,inactive: -18.7%

Compound,Potency,"activity change, negative = inhibition"
Cc1cccn2c(=O)c(C=O)c(N3CCN(c4ccc(F)cc4)CC3)nc12,active: 16.4 µM,
COc1ccc(S(=O)(=O)n2ccc(C(C)Oc3ccc(-c4ccccc4)c(F)c3)n2)cc1 (stereo not drawn),"inconclusive: 13 µM [falling, single point]",
CCCCOCC(O)CCc1n[nH]c(=S)n1-c1ccccc1 (stereo not drawn),"inconclusive: 6.51 µM [activator, single point]",
CC(C)CC(=O)Nc1ccc(-c2nc3ccccc3c(=O)o2)cc1,,inactive: -6.12%
CCC(=O)Nc1nc2ccc(NC(C)=O)cc2s1,"inconclusive: 25.9 µM [activator, partial curve, poor fit]",
O=C(Nc1cc2c(cc1Cl)OCCCO2)c1ccco1,"inconclusive: 18.4 µM [activator, partial curve]",
Nc1ncnc(NC2CCS(=O)(=O)C2)c1[N+](=O)[O-] (stereo not drawn),"inconclusive: 2.91 µM [falling, single point]",
COc1cc(C)nc(N2CCCC(C(=O)NC3CCC(C)CC3)C2)n1 (stereo not drawn),"inconclusive: 2.06 µM [activator, full curve]",
O=C(C1CCN(S(=O)(=O)c2cccc3cccnc23)CC1)N1CCN(c2ccccn2)CC1,,inactive: -17.6%
COCCN1Cc2cccc(C(=O)Nc3ccc(C)c(C)c3)c2C1=O,"inconclusive: 6.51 µM [falling, partial curve, poor fit]",
COc1cc2nc(CN3CCN(S(=O)(=O)c4cc(C)ccc4C)CC3)[nH]c(=O)c2cc1OC,"inconclusive: 14.6 µM [falling, single point]",
CN(c1ccccc1)c1nc(N)c(C#N)c(CC#N)c1C#N,,inactive: 1.53%
O=C(OCC(=O)N1CCN(c2ccccc2)CC1)c1ccccc1[N+](=O)[O-],"inconclusive: 7.31 µM [activator, partial curve]",
C=CCN(c1ccccc1OC)S(=O)(=O)c1cccc(C(=O)OCC(=O)c2c(N)n(C)c(=O)n(C)c2=O)c1,active: 20.6 µM,
Cc1ccc(NC(=O)CN2C(=S)NC(C)(C)CC2C)cc1Cl (stereo not drawn),"inconclusive: 29.1 µM [falling, single point]",
N#CC(C#N)=Cc1cc2ccccc2nc1N1CCCCC1,,inactive: -1.62%
COc1ccc(C2=NS(=O)(=O)N(C)C(C(=O)Nc3ccc4c(c3)OCO4)=C2)cc1OC,"inconclusive: 29.1 µM [falling, single point]",
O=C(Nc1ccc(-n2cnnn2)cc1)c1cccc(S(=O)(=O)N2CCCC2)c1,"inconclusive: 16.4 µM [falling, partial curve, poor fit]",
Cc1cc(CNC(=O)c2ccc3c(c2)OCO3)c2ccccc2n1,"inconclusive: 18.4 µM [falling, partial curve]",
O=C1N(c2ccccc2)CCN1c1ccccc1,"inconclusive: 3.66 µM [activator, full curve]",
CCCC(=O)N(c1ccc2oc(=O)sc2c1)S(=O)(=O)c1ccccc1,"inconclusive: 18.4 µM [falling, single point]",

# Reprinted at random: 2 compounds from above.
Compound,Potency,"activity change, negative = inhibition"
Cc1cc(CNC(=O)c2ccc3c(c2)OCO3)c2ccccc2n1,"inconclusive: 18.4 µM [falling, partial curve]",
Nc1ncnc(NC2CCS(=O)(=O)C2)c1[N+](=O)[O-] (stereo not drawn),"inconclusive: 2.91 µM [falling, single point]",
